{"source": "PubChem BioAssay AID1259308 (NCATS, 2017)", "assay": "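Knock-downs that increase output of a recombinant reporter protein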 (primary screen)", "cells": "human HEK293 embryonic kidney cells stably expressing firefly luciferase (HEK-CMV-Luc2-Hygro)", "knock-down reagent": "single siRNA against human genes, 0.8 pmol siRNA per well", "timing": "72 h", "measurement": "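Reporter luminescence and viable-cell signal on separate replicate plates, given as percent of non-targeting control and median/MAD z-scores, plus per-cell luciferase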", "direction": "total luciferase, z-score: higher = more reporter protein produced", "call rule": "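An siRNA counts as active if its total luciferase robust z-score exceeds 3; genes with two or more such siRNAs out of three were retested with fresh siRNAs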", "meaning of the calls": "active = raised luciferase; inactive = no rise", "note": "The deposit covers about 59,000 reagents; this is a part drawn at random. About 1,510 of them (2.6%) count as active. 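Calls use total luciferase alone and ignore viability, so some active siRNAs may act by altering cell number.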 The numbers tell different reagents against one gene apart. Further read-outs or replicates are left out here."}
{"target gene":"RPL14 (ribosomal protein L14)","reagent":1,"total luciferase, z-score":-2.85,"outcome":"inactive"}
{"target gene":"RPL14 (ribosomal protein L14)","reagent":2,"total luciferase, z-score":-2.82,"outcome":"inactive"}
{"target gene":"RPL14 (ribosomal protein L14)","reagent":3,"total luciferase, z-score":-2.24,"outcome":"inactive"}
{"target gene":"KDM8 (lysine demethylase 8 (putative))","reagent":1,"total luciferase, z-score":0.132,"outcome":"inactive"}
{"target gene":"KDM8 (lysine demethylase 8 (putative))","reagent":2,"total luciferase, z-score":1.62,"outcome":"inactive"}
{"target gene":"KDM8 (lysine demethylase 8 (putative))","reagent":3,"total luciferase, z-score":0.137,"outcome":"inactive"}
{"target gene":"ZNF648 (zinc finger protein 648)","reagent":1,"total luciferase, z-score":2.88,"outcome":"inactive"}
{"target gene":"ZNF648 (zinc finger protein 648)","reagent":2,"total luciferase, z-score":-0.743,"outcome":"inactive"}
{"target gene":"ZNF648 (zinc finger protein 648)","reagent":3,"total luciferase, z-score":1.77,"outcome":"inactive"}
{"target gene":"C3orf85 (chromosome 3 open reading frame 85)","reagent":1,"total luciferase, z-score":-0.725,"outcome":"inactive"}
{"target gene":"C3orf85 (chromosome 3 open reading frame 85)","reagent":2,"total luciferase, z-score":-0.507,"outcome":"inactive"}
{"target gene":"C3orf85 (chromosome 3 open reading frame 85)","reagent":3,"total luciferase, z-score":-1.1,"outcome":"inactive"}
{"target gene":"ZKSCAN8P1 (ZKSCAN8 pseudogene 1)","reagent":1,"total luciferase, z-score":-1.66,"outcome":"inactive"}
{"target gene":"ZKSCAN8P1 (ZKSCAN8 pseudogene 1)","reagent":2,"total luciferase, z-score":-0.302,"outcome":"inactive"}
{"target gene":"ZKSCAN8P1 (ZKSCAN8 pseudogene 1)","reagent":3,"total luciferase, z-score":-1.12,"outcome":"inactive"}

Part of the list above, reformatted:
target gene	reagent	total luciferase, z-score	outcome
KDM8 (lysine demethylase 8 (putative))	1	0.132	inactive
KDM8 (lysine demethylase 8 (putative))	2	1.62	inactive

Continued.
{"target gene":"FAIM (Fas apoptotic inhibitory molecule)","reagent":1,"total luciferase, z-score":-0.243,"outcome":"inactive"}
{"target gene":"FAIM (Fas apoptotic inhibitory molecule)","reagent":2,"total luciferase, z-score":1.31,"outcome":"inactive"}
{"target gene":"FAIM (Fas apoptotic inhibitory molecule)","reagent":3,"total luciferase, z-score":2.3,"outcome":"inactive"}
{"target gene":"POLN (DNA polymerase nu)","reagent":1,"total luciferase, z-score":0.612,"outcome":"inactive"}
{"target gene":"POLN (DNA polymerase nu)","reagent":2,"total luciferase, z-score":1.12,"outcome":"inactive"}
{"target gene":"POLN (DNA polymerase nu)","reagent":3,"total luciferase, z-score":-1.1,"outcome":"inactive"}
{"target gene":"TSPAN9 (tetraspanin 9)","reagent":1,"total luciferase, z-score":-0.18,"outcome":"inactive"}
{"target gene":"TSPAN9 (tetraspanin 9)","reagent":2,"total luciferase, z-score":0.074,"outcome":"inactive"}
{"target gene":"TSPAN9 (tetraspanin 9)","reagent":3,"total luciferase, z-score":-0.574,"outcome":"inactive"}
{"target gene":"TMEM101 (transmembrane protein 101)","reagent":1,"total luciferase, z-score":-0.714,"outcome":"inactive"}
{"target gene":"TMEM101 (transmembrane protein 101)","reagent":2,"total luciferase, z-score":0.801,"outcome":"inactive"}
{"target gene":"TMEM101 (transmembrane protein 101)","reagent":3,"total luciferase, z-score":-1.11,"outcome":"inactive"}
{"target gene":"F11R (F11 receptor)","reagent":1,"total luciferase, z-score":-1.14,"outcome":"inactive"}
{"target gene":"F11R (F11 receptor)","reagent":2,"total luciferase, z-score":0.0248,"outcome":"inactive"}
{"target gene":"F11R (F11 receptor)","reagent":3,"total luciferase, z-score":0.599,"outcome":"inactive"}
{"target gene":"POLR2J4 (RNA polymerase II subunit J4 (pseudogene))","reagent":1,"total luciferase, z-score":-0.341,"outcome":"inactive"}
{"target gene":"POLR2J4 (RNA polymerase II subunit J4 (pseudogene))","reagent":2,"total luciferase, z-score":-1.18,"outcome":"inactive"}
{"target gene":"POLR2J4 (RNA polymerase II subunit J4 (pseudogene))","reagent":3,"total luciferase, z-score":3.76,"outcome":"active"}
{"target gene":"ARPC5L (actin related protein 2/3 complex subunit 5 like)","reagent":1,"total luciferase, z-score":2.51,"outcome":"inactive"}
{"target gene":"ARPC5L (actin related protein 2/3 complex subunit 5 like)","reagent":2,"total luciferase, z-score":-0.00763,"outcome":"inactive"}
{"target gene":"ARPC5L (actin related protein 2/3 complex subunit 5 like)","reagent":3,"total luciferase, z-score":-0.128,"outcome":"inactive"}
{"target gene":"TNIK (TRAF2 and NCK interacting kinase)","reagent":1,"total luciferase, z-score":-0.909,"outcome":"inactive"}
{"target gene":"TNIK (TRAF2 and NCK interacting kinase)","reagent":2,"total luciferase, z-score":1.3,"outcome":"inactive"}
{"target gene":"TNIK (TRAF2 and NCK interacting kinase)","reagent":3,"total luciferase, z-score":0.417,"outcome":"inactive"}
{"target gene":"ZNF705A (zinc finger protein 705A)","reagent":1,"total luciferase, z-score":0.0623,"outcome":"inactive"}
{"target gene":"ZNF705A (zinc finger protein 705A)","reagent":2,"total luciferase, z-score":0.153,"outcome":"inactive"}
{"target gene":"ZNF705A (zinc finger protein 705A)","reagent":3,"total luciferase, z-score":2.59,"outcome":"inactive"}
